Values quoted from earlier work as cited in paper PMC4359537, “Pharmacological characterisation of murine α4β1δ GABAA receptors expressed in Xenopus oocytes” (BMC Neuroscience, 2015).
pEC50: −log10 of the molar value.

Tests used:
α4β1δ receptor = conditions: read-out: GABA potency (EC50); rat receptor in Xenopus oocytes; cited from earlier work
human α4β1δ receptor = conditions: read-out: GABA potency (EC50); human receptor in Xenopus oocytes; cited from earlier work

## NCCCC(=O)O [GABA, γ-Aminobutyric acid]
α4β1δ receptor
  pEC50: 5.69
Human α4β1δ receptor
  pEC50: 7.62
